Data source: PubChem BioAssay AID1259405 (NCATS, 2018)

Assay: 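Mouse-designed siRNAs used to find CHO productivity engineering targets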 (primary screen)
System: Chinese hamster CHO-K1 ovary cells with stable secreted eGFP expression
Reagent: single siRNA against mouse genes, 0.8 pmol siRNA per well (2 µl of 400 nM stock)
Timing: 3 days
Detection: 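Per-well intracellular GFP measured by laser scanning cytometry, plus viability from ATP luminescence, each relative to plate median of non-targeting control wells, in %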
Direction: GFP, % of control: higher = more GFP per well, higher productivity; viability (ATP), % of control: higher = more viable cells (more ATP)
Active means: 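Called active when intracellular GFP, relative to negative control, is at or above 120%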
Here is a random part of about 50,000 reagents. Over the whole deposit, about 4,000 (8%) are marked active. 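Mouse siRNA library applied to hamster cells; one well for each siRNA.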 Reagents against one gene are numbered here. Reagent sequences are not shown.

| target | reagent | GFP, % of control | viability (ATP), % of control | activity call |
| --- | --- | --- | --- | --- |
| Tcea1 | 1 | 85.4 | 86.8 | inactive |
| Tcea1 | 2 | 86 | 53.3 | inactive |
| Tcea1 | 3 | 70.7 | 102 | inactive |
| Or5b118 | 1 | 50.2 | 73.4 | inactive |
| Or5b118 | 2 | 65.9 | 84.9 | inactive |
| Or5b118 | 3 | 55.3 | 51.4 | inactive |
| Ccdc174 | 1 | 63 | 39 | inactive |
| Ccdc174 | 2 | 67.5 | 82.9 | inactive |
| Ccdc174 | 3 | 80 | 95.8 | inactive |
| Spaca7 | 1 | 64.7 | 52 | inactive |
| Spaca7 | 2 | 59.8 | 105 | inactive |
| Spaca7 | 3 | 97 | 79 | inactive |
| Igfbp6 | 1 | 52.6 | 59.7 | inactive |
| Igfbp6 | 2 | 64.1 | 60.8 | inactive |
| Igfbp6 | 3 | 108 | 83.3 | inactive |
| Clca3a2 | 1 | 107 | 105 | inactive |
| Clca3a2 | 2 | 133 | 129 | active |
| Clca3a2 | 3 | 95.7 | 57.3 | inactive |
| 1700001O22Rik | 1 | 128 | 112 | active |
| 1700001O22Rik | 2 | 84.3 | 64.8 | inactive |
| 1700001O22Rik | 3 | 91.2 | 40.1 | inactive |
| Cdkal1 | 1 | 82 | 95.9 | inactive |
| Cdkal1 | 2 | 71.6 | 81.1 | inactive |
| Cdkal1 | 3 | 69.1 | 88.5 | inactive |
| Scn5a | 1 | 140 | 97.6 | active |
| Scn5a | 2 | 154 | 95.5 | active |
| Scn5a | 3 | 79.9 | 92.3 | inactive |
| Prl4a1 | 1 | 108 | 71.1 | inactive |
| Prl4a1 | 2 | 41.3 | 54.8 | inactive |
| Prl4a1 | 3 | 47.5 | 56.8 | inactive |
| Gpr137 | 1 | 123 | 78.6 | active |
| Gpr137 | 2 | 82.5 | 89.9 | inactive |
| D130020L05Rik | 1 | 83.1 | 63.3 | inactive |
| D130020L05Rik | 2 | 79.1 | 63.1 | inactive |
| D130020L05Rik | 3 | 115 | 116 | inactive |
| Oma1 | 1 | 86.1 | 85 | inactive |
| Oma1 | 2 | 73.2 | 79.5 | inactive |
| Bace2 | 1 | 68 | 71 | inactive |
| Bace2 | 2 | 89.1 | 87 | inactive |
| Bace2 | 3 | 67.2 | 77.9 | inactive |
| Zfp846 | 1 | 43.9 | 65.9 | inactive |
| Zfp846 | 2 | 82.3 | 82.8 | inactive |
| Zfp846 | 3 | 62.7 | 84.7 | inactive |
| Myo5c | 1 | 83.2 | 78.2 | inactive |
| Myo5c | 2 | 76.6 | 88.6 | inactive |
| Pglyrp4 | 1 | 89.2 | 108 | inactive |
| Pglyrp4 | 2 | 12.5 | 21.7 | inactive |
| Pglyrp4 | 3 | 36.3 | 43.7 | inactive |
| Or2at1 | 1 | 60 | 84.9 | inactive |
| Or2at1 | 2 | 102 | 92.1 | inactive |
| Or2at1 | 3 | 39.7 | 68.9 | inactive |
| Magt1 | 1 | 126 | 59.8 | active |
| Magt1 | 2 | 66.7 | 67 | inactive |
| Magt1 | 3 | 71.8 | 54.6 | inactive |
| Rnf225 | 1 | 68.6 | 69 | inactive |
| Rnf225 | 2 | 63.4 | 95.4 | inactive |
| Rnf225 | 3 | 56.1 | 67.1 | inactive |
| Prcc | 1 | 48.4 | 24 | inactive |
| Prcc | 2 | 109 | 55.3 | inactive |
| Prcc | 3 | 92.2 | 88.8 | inactive |
| Prr36 | 1 | 67.2 | 80.9 | inactive |
| Prr36 | 2 | 80.8 | 79.3 | inactive |
| Prr36 | 3 | 56.7 | 61.8 | inactive |
| Myo6 | 1 | 72.7 | 62.9 | inactive |
| Myo6 | 2 | 102 | 85 | inactive |
| Myo6 | 3 | 98.7 | 84.6 | inactive |
| Flvcr2 | 1 | 9.71 | 10.2 | inactive |
| Flvcr2 | 2 | 53.8 | 81.8 | inactive |
| Flvcr2 | 3 | 66.2 | 56.5 | inactive |
| Zc3h8 | 1 | 58.5 | 76.1 | inactive |
| Zc3h8 | 2 | 69.7 | 73.3 | inactive |
| Zc3h8 | 3 | 55.3 | 94.5 | inactive |
| Mrps30 | 1 | 63.3 | 58.1 | inactive |
| Mrps30 | 2 | 70.9 | 89.7 | inactive |
| Mrps30 | 3 | 64.6 | 56.1 | inactive |
| Tlnrd1 | 1 | 103 | 65.5 | inactive |
| Tlnrd1 | 2 | 62.3 | 71.5 | inactive |
| Tlnrd1 | 3 | 126 | 103 | active |
| Nlrp14 | 1 | 96 | 85 | inactive |
| Nlrp14 | 2 | 82.9 | 84.4 | inactive |
| Nlrp14 | 3 | 63.5 | 88.4 | inactive |
| Cimip2c | 1 | 110 | 76.5 | inactive |
| Cimip2c | 2 | 71 | 75.4 | inactive |
| Cimip2c | 3 | 151 | 45.1 | active |
